According to US10807958B2, “1,4-bis(3-aminopropyl)piperazine derivative and its use” (INSERM (Institut National de la Sante et de la Recherche …, priority 2015, dated 2020):

Tested on: Wild-type C57BL/6J animals
Assay: Morris water maze spatial memory, wild-type animals
Format: in vivo, mouse
Conditions: 0.5 mg/kg
Source text: Wild-type C57BL/6J animals of 3 months were purchased at Charles Rivers Laboratories (France) and were allow to acclimate in the animal facility for at least one week before any treatment. Thy-Tau22 transgenic colonies (C57BL/6J genetic background) were obtained by crossing heterozygous Thy-Tau22 males with C57BL/6 WT females. […] In this model, a progressive development of NFT is observed in the hippocampus and amygdala, which parallels behavioral impairments (Schindowski et al., 2006). Furthermorever, in the hippocampus, hyper- and abnormally phosphorylated Tau species accumulate within the somato-dendritic area (Schindowski et al., 2006).
For animal treatment, animals were randomly distributed and the compound of Formula I was given in the drinking water at final concentration of 0.5 or 1 mg/kg. Drinking bottles were changed once per week, volume consumption was measured along the treatment period. Food consumption and body weight were assessed. […]
Before any behavioral test, exploratory and locomotion of treated and untreated animal were evaluated in a Open field (OF) 25 cm×25 cm arena. […] The anxiety, which could interfere with memory test, was evaluated by the elevated plus maze (EPM). […]
Spatial learning and memory abilities were assessed in a standard hidden-platform acquisition and retention version of the Morris water maze task (Van der Jeugd et al., 2013). […]

SMILES: CC(C)CN(CCCN1CCN(CCCNc2c3c(nc4ccccc24)CCCC3)CC1)CC(C)C [compound of Formula I, N-[3-(4-{3-[Bis(2-methylpropyl)amino]propyl}piperazin-1-yl)propyl]-1,2,3,4-tetrahydroacridin-9-amine]
- cognitive performance of wild-type animals (preference for target quadrant) (FIG. 4B): did not impact
- probe test, effect on spatial memory in wild-type animals (probe test 72 hours after last learning day): no significant effect
